Measurements as given in article PMC4746591, “Internal (His)6-tagging delivers a fully functional hetero-oligomeric class II chaperonin in high yield” (Scientific Reports, 2016).
No constants are given. Whether binding was seen depends on the method and setting. For some of these results: In cells and extracts the contact can be indirect. Some binding calls cover weakened binding; strength is not graded here. Tags and fused reporters may be left off the sequences shown.

How the values were obtained:
[1] = target: T1, thermosome α subunit with a (His)6-tag downstream Lys144 (αK144Ht) (Thermoplasma acidophilum) (UniProt P48424); assay: native gel or EMSA; native gel electrophoresis of the SEC peak, beside the un-tagged recombinant thermosome; subunits co-expressed and co-purified; both purified
T1 sequence: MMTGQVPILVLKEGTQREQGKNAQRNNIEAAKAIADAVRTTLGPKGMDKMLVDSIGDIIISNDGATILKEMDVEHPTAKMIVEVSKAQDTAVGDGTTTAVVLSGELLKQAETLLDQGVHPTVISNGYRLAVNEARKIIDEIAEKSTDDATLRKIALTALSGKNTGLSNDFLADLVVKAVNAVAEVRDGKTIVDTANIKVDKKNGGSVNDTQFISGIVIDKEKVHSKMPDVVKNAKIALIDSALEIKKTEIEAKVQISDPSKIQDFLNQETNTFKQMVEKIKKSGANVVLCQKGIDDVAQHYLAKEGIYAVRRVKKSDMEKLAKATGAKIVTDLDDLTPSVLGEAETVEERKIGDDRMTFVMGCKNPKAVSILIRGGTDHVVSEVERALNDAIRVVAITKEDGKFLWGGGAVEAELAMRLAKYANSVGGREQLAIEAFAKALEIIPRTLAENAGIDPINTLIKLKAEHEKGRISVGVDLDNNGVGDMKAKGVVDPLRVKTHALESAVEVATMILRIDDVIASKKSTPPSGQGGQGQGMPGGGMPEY

[2] = target: T2, thermosome α subunit, wild type (un-tagged) (Thermoplasma acidophilum) (UniProt P48424); assay: as above
T2 sequence: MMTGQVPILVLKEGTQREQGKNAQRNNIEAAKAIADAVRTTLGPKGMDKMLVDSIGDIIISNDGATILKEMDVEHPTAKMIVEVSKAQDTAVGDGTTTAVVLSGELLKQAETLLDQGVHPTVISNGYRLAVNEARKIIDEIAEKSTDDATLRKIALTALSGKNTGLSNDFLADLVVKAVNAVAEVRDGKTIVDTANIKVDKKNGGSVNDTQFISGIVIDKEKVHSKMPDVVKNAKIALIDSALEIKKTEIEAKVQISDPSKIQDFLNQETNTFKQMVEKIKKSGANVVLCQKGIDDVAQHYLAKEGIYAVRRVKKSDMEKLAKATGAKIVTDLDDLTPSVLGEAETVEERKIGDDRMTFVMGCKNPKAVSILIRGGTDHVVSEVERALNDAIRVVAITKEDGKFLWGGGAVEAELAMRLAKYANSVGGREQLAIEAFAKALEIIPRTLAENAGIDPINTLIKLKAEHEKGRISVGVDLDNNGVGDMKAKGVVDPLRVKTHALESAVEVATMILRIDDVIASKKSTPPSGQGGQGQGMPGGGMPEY

[3] = target: T1, thermosome α subunit with a (His)6-tag downstream Lys144 (αK144Ht) (Thermoplasma acidophilum); assay: negative-stain and cryo-electron microscopy, 2D class averages; purified tagged complex in the apo state; 2% uranyl acetate or vitrified; FEI Tecnai F20, 200 kV; the resolution does not show the arrangement of the subunits; both purified
[4] = target: T1, thermosome α subunit with a (His)6-tag downstream Lys144 (αK144Ht) (Thermoplasma acidophilum); assay: pull-down; Nickel affinity chromatography (5 ml HisTrap FF) of the lysate of E. coli co-expressing tagged α and untagged β; 20 mM NaPho, 0.5 M NaCl, 20 mM imidazole, pH 7.2; elution at about 100 mM imidazole; room temperature; fractions checked by SDS-PAGE

Measured: binding

B1: thermosome β subunit (natural protein, Thermoplasma acidophilum)
chain: MIAGQPIFILKEGTKRESGKDAMKENIEAAIAISNSVRSSLGPRGMDKMLVDSLGDIVITNDGVTILKEMDVEHPAAKMMVEVSKTQDSFVGDGTTTAVIIAGGLLQQAQGLINQNVHPTVISEGYRMASEEAKRVIDEISTKIGADEKALLLKMAQTSLNSKSASVAKDKLAEISYEAVKSVAELRDGKYYVDFDNIQVVKKQGGAIDDTQLINGIIVDKEKVHPGMPDVVKDAKIALLDAPLEIKKPEFDTNLRIEDPSMIQKFLAQEENMLREMVDKIKSVGANVVITQKGIDDMAQHYLSRAGIYAVRRVKKSDMDKLAKATGASIVSTIDEISSSDLGTAERVEQVKVGEDYMTFVTGCKNPKAVSILVRGETEHVVDEMERSITDSLHVVASALEDGAYAAGGGATAAEIAFRLRSYAQKIGGRQQLAIEKFADAIEEIPRALAENAGLDPIDILLKLRAEHAKGNKTYGINVFTGEIEDMVKNGVIEPIRVGKQAIESATEAAIMILRIDDVIATKSSSSSSNPPKSGSSSESSED
notes: thermosome β subunit, Thermoplasma acidophilum, P48425; untagged; Eight copies stand in the α8/β8 hexadecamer; also called un-tagged β-subunit; source: E. coli BL21(DE3) Codon Plus-RIL, co-expressed in tandem with the α subunit (αK144HTTherm or pETTherm α/β); in lysate, then purified with the complex
binds: [1] | [2] | [3] | [4]
